Source: PubChem BioAssay AID602196 (INSERM, 2012)
The whole screen tested about 23,000 reagents; shown is a random part of them. 455 of all reagents (2%) count as active. 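Active includes both protection and sensitisation; some change values fall well beyond the stated -50 to +50 range.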 A number with no mark means an inactive call. Further read-outs or replicates are left out here. No sequences are given here. Not stated in the record: the amount of reagent.

Test: 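Knock-downs that protect lung cancer cells from cisplatin or sensitise them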
Cells: human A549 lung cancer cells
Reagents: siRNA pair against human genes
Timing: 48 h transfection before cisplatin; time from cisplatin to read-out not stated
Challenge: cisplatin at a dose killing half of control-siRNA cells; exact dose and duration not given
Detection: 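Cisplatin cell death as a shift from the 50% death seen with control siRNA; siRNAs toxic or growth-blocking alone scored 0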
Reading the numbers: two-siRNA summed score (-2 to +2): higher = both siRNAs protect from cisplatin killing; -2 means both sensitise
Hit rule: 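Each siRNA scores 0 if harmful alone by LDH or WST-1, otherwise +1 if it reduces and -1 if it increases cisplatin killing; a gene is active when both siRNAs agree (sum +2 or -2)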
Calls: active = both siRNAs shift cisplatin killing the same way; inactive = no consistent shift, or siRNA harmful alone

Target gene	two-siRNA summed score (-2 to +2)
EPS8L1	1
KIAA1755	0
FAHD2A	0
TMEM174	0
IFIT1	0
LOC400123	0
PPP2R2B	0
DCPS	1
PCDHGA3	0
LOC440449	0
MIEN1	0
LOC374569	0
PKLR	0
KHDC1	0
LOC442474	0
LOC128499	0
RPP25	-1
CMYA5	1
ANKRD20A1	0
SLC38A12	0
IFT57	-1
LOC440868	0
DPT	1
SCAMP5	0
HSF2BP	0
RGS11	0
ARK2C	0
IFI27L2	0
LOC149157	0
SAXO4	0
LOC440666	1
PPP1R9A	0
LOC390423	0
LOC442709	0
STK32B	1
HEXIM2	0
CACNG7	-1
POLR2E	-1
LOC440702	0
GOT1	-1
RILPL1	0
PLB1	0
TBCB	0
FAM114A1	0
GHRH	0
ARV1	0
LOC440258	0
TMEM87B	0
WNT10A	1
ATP2C2	0
ZFP36L1	1
LOC441578	0
DCHS2	0
SLC4A7	0
CCDC197	-2 (active)
CCDC187	0
ZNF212	0

No new results follow: entries from further up.
Target gene	two-siRNA summed score (-2 to +2)
ARK2C	0
IFI27L2	0
LOC149157	0
SAXO4	0
LOC440666	1
